This is one part of the list.
Compound: C1=CC2=NC=CN=C2C=C1/C=C/3\C(=O)NC(=O)S3
Assay: log2 fold change, soluble protein after heating vs DMSO (PISA); higher = thermal stabilisation; K562 lysate, 10 uM; active = over 0.2 and 3.5 SD of the protein, either way, in both replicates (recomputed)
In short: (§1)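 To prepare the extract, K562 pellets were dounce-homogenised in PBS pH 7.4 with 1 mM MgCl2, giving crude material at 1 mg/mL protein. This was treated with 10 μM compound for 30 min, then heated in aliquots for 3 min over 48°C-58°C before pooling and addition of NP-40 to 0.5% at 4°C. Centrifugation at 21,000xg for 90 min left soluble protein in the supernatant, which TMTpro 16plex LC-MS/MS quantified with equalised channel sums. Results are log-two fold changes in thermal stability compared with solvent controls, from duplicates.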

Amino acid sequences for entries named in this document (tags omitted). A change or cut given only in a name is not applied to a line headed by its entry.
UniProt Q9NRK6: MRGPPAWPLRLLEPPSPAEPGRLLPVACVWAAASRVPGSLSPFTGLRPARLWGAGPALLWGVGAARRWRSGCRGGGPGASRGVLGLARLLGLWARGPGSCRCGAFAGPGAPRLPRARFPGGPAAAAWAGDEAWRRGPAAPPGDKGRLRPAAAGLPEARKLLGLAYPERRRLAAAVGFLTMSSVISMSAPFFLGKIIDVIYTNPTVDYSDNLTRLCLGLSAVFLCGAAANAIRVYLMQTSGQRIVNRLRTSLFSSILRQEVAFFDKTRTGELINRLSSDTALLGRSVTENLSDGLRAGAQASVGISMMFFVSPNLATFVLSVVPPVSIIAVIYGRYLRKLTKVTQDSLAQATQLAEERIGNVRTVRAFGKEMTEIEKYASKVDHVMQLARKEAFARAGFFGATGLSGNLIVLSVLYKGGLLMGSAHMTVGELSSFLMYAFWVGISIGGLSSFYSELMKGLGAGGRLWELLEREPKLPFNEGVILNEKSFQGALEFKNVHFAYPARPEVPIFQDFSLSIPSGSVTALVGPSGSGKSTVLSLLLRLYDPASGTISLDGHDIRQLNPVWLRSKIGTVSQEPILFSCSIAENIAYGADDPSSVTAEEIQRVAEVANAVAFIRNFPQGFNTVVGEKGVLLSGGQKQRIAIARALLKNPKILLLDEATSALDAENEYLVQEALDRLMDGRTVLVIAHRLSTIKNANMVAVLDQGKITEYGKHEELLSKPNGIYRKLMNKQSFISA
UniProt Q96GS6: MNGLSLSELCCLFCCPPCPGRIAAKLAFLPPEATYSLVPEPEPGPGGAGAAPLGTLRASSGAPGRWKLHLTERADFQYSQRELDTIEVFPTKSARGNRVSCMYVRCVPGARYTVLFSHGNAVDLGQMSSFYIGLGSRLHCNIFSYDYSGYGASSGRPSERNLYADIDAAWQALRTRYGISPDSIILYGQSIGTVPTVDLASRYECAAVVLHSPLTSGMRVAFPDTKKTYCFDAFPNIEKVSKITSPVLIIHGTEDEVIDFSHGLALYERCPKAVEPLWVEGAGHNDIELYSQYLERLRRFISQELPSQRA
UniProt Q9ULW3: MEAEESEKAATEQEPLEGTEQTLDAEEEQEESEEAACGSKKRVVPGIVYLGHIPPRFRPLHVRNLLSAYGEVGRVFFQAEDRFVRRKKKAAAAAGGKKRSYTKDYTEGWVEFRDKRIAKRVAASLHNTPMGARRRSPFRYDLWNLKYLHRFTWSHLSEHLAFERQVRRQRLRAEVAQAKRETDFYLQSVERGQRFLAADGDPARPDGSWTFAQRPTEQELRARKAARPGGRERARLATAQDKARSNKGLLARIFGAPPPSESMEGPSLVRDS
UniProt P16219: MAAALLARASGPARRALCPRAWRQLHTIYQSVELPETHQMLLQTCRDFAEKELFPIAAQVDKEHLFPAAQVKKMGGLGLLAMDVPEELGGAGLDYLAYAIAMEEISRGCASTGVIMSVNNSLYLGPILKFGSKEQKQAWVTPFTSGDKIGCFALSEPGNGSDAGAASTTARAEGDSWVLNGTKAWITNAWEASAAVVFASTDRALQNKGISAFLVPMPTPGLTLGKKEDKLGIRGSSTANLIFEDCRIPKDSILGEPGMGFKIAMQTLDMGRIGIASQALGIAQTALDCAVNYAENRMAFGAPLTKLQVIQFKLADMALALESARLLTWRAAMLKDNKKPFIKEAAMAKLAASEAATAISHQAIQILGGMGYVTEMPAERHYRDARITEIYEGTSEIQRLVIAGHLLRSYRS
UniProt Q8NE71: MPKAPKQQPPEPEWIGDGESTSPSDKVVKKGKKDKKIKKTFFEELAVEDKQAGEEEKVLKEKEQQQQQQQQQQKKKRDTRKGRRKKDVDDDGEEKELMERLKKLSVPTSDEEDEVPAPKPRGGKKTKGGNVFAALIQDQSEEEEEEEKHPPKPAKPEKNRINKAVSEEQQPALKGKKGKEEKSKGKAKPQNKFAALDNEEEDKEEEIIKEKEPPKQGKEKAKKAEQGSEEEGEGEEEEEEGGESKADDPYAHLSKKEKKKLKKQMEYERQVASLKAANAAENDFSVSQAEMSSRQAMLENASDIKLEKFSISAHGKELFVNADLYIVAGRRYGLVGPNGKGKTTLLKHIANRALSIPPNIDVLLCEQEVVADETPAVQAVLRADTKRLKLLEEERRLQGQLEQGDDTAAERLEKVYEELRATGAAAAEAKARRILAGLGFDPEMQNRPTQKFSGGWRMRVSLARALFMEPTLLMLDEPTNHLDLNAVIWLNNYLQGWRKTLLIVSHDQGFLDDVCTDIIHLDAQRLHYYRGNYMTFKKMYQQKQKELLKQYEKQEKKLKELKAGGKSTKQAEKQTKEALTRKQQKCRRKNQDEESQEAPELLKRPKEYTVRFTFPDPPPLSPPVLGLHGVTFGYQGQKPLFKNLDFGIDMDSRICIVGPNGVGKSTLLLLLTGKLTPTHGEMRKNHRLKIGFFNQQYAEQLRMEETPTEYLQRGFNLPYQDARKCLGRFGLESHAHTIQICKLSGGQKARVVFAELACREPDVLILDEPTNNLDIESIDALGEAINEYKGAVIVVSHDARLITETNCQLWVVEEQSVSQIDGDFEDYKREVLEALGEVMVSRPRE
UniProt O95870: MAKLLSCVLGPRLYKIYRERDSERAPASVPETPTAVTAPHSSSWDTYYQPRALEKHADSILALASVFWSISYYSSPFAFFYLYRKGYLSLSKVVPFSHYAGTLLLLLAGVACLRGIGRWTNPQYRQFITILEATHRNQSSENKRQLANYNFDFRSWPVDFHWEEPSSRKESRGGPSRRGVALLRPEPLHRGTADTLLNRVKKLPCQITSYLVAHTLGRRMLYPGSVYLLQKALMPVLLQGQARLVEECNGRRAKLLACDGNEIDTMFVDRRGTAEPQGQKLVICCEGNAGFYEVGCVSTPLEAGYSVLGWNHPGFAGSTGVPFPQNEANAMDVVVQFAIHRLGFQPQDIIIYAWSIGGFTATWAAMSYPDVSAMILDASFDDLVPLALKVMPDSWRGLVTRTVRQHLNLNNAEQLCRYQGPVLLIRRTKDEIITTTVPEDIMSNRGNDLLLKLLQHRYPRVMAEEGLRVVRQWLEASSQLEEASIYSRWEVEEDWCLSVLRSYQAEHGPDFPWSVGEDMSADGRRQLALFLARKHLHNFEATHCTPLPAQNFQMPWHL
UniProt Q9H7C9: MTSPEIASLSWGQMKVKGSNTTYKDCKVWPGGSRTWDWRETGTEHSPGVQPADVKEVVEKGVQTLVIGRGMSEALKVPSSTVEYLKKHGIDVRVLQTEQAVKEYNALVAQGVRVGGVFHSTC
UniProt P00519, whole entry, looked up: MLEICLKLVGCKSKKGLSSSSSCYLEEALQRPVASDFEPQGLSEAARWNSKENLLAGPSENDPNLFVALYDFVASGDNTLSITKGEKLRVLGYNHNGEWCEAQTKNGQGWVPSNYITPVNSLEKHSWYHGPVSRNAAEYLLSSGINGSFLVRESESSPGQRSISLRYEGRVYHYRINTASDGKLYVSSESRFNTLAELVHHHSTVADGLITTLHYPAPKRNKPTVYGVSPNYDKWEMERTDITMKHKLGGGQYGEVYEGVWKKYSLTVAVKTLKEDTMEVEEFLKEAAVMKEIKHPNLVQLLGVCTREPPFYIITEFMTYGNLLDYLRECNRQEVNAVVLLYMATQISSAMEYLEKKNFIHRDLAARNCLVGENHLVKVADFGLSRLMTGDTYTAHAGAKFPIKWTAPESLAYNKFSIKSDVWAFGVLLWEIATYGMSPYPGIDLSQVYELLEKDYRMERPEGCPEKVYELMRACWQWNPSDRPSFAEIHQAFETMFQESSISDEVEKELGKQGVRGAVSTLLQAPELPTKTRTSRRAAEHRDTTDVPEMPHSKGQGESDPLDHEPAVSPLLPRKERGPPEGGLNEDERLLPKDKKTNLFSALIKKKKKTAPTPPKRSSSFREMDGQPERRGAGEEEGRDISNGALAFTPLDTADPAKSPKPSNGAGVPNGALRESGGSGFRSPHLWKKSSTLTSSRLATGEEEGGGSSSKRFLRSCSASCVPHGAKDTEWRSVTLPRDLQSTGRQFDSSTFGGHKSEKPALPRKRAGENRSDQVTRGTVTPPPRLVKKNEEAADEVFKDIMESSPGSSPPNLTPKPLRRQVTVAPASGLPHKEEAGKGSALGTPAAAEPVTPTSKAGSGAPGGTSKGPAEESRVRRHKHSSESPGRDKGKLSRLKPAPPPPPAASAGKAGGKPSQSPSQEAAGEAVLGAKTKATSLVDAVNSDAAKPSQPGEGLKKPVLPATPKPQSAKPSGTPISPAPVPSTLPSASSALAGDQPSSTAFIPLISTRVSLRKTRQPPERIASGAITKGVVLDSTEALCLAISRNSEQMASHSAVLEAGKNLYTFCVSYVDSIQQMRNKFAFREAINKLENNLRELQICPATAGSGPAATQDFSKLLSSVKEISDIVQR
UniProt Q86V21: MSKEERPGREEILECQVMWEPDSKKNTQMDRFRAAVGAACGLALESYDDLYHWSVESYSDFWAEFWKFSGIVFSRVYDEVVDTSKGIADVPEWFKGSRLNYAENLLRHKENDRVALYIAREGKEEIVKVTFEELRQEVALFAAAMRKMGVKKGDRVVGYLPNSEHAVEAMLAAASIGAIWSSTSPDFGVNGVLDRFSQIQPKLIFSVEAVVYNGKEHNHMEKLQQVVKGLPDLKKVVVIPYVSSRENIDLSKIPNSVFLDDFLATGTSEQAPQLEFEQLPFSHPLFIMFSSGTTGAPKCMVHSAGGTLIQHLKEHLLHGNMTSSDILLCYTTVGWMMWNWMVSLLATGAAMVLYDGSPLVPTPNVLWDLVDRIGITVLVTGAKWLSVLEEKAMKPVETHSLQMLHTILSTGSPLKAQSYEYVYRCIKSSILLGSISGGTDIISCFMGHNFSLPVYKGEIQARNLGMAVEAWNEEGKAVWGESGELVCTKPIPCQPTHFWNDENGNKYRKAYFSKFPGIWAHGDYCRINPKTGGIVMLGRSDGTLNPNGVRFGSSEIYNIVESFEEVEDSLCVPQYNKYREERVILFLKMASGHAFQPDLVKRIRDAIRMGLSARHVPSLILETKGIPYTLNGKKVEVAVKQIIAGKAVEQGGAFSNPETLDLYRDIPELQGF
UniProt Q9UG63: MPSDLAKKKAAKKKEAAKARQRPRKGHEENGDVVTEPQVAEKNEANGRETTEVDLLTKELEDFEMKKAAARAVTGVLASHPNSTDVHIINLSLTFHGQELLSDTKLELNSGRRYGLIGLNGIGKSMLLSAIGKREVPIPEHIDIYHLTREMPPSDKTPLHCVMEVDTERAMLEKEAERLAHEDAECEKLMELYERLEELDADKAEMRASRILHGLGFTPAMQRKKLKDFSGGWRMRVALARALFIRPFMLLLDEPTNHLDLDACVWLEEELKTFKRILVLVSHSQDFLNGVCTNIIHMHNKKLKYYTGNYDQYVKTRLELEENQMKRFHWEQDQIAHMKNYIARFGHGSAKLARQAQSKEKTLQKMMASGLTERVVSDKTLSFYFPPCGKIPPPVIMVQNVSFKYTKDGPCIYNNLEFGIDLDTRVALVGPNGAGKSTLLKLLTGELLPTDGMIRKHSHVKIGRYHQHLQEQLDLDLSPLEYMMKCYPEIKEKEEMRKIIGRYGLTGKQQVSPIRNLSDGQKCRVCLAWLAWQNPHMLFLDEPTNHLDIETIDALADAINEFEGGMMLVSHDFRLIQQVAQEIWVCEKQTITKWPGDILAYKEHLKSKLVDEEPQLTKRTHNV
UniProt O75027: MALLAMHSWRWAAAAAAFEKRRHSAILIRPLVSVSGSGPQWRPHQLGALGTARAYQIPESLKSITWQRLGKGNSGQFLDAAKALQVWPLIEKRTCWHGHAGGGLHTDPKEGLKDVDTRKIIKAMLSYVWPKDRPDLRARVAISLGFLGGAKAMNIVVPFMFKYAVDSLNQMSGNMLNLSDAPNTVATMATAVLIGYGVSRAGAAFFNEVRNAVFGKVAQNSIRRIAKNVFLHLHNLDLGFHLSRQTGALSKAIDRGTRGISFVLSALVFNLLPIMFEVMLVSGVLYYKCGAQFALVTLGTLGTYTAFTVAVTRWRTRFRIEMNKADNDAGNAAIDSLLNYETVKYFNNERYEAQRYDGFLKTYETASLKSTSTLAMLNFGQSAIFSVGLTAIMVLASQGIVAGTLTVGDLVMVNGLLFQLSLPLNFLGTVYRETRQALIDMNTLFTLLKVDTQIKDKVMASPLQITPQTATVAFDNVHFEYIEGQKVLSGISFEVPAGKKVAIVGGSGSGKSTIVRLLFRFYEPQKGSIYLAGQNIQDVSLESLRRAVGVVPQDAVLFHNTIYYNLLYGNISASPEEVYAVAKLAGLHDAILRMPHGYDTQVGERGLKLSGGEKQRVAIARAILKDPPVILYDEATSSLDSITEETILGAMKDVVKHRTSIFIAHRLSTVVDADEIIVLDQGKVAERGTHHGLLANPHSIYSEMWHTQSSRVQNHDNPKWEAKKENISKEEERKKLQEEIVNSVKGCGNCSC

log2 fold change, inactive:
A0A096LPI6, A0A096LPI6 0.02
ABCB10 (UniProt Q9NRK6) -0.035
ABHD10 (UniProt Q9NUJ1) -0.01
ABHD17A isoform 2 (UniProt Q96GS6) 0.022
ABT1 (UniProt Q9ULW3) -0.031
ACO1 (UniProt P21399) -0.006
ACADS (UniProt P16219) -0.012
ACBD6 (UniProt Q9BR61) -0.032
ABCF1 (UniProt Q8NE71) -0.006
ABHD16A (UniProt O95870) -0.042
AARSD1 isoform 3 (UniProt Q9BTE6) 0.012

Looked up one by one from the entries so far:
log2 fold change, inactive:
ABHD10 (UniProt Q9NUJ1) -0.01
ACADS (UniProt P16219) -0.012

Compound: C1=CC=C(C=C1)C2=NC(=C(N2)C3=CC=NC=C3)C4=CC(=C(C=C4)Cl)O
Assay: as above
In short: as §1

log2 fold change, inactive:
AAK1, A0A096LP25 -0.006
AAMDC (UniProt Q9H7C9) -0.025
ACIN1 (UniProt E7EQT4) -0.057
ACCS (UniProt Q96QU6) 0.075
A0A0B4J2A0, A0A0B4J2A0 0.017
ABL1 isoform 2 (UniProt P00519) 0.033
ABITRAM (UniProt Q9NX38) -0.045
AACS (UniProt Q86V21) 0.039
ABCF2 isoform 2 (UniProt Q9UG63) 0.018
ACACA isoform 4 (UniProt Q13085) 0.019
ABCB7 isoform 2 (UniProt O75027) 0.079
